From publication PMC11242351
No constants are given. Whether binding was seen depends on the method and setting. Binding seen in cells or lysates may run through a third protein. Some binding calls cover weakened binding; strength is not graded here.

Protein sequences, listed by entry. Tags and fused reporters are not part of them.
UniProt O95236: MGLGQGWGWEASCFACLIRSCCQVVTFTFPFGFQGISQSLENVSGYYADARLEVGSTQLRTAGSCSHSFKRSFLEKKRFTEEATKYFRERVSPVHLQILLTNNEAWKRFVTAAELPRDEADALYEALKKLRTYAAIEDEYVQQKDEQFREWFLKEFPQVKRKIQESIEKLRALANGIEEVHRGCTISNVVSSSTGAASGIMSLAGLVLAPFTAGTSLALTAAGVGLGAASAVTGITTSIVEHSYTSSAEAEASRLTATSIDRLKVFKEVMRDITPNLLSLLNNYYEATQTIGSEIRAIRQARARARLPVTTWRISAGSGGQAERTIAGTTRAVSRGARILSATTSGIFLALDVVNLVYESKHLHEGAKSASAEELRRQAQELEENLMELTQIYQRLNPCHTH
UniProt P67809: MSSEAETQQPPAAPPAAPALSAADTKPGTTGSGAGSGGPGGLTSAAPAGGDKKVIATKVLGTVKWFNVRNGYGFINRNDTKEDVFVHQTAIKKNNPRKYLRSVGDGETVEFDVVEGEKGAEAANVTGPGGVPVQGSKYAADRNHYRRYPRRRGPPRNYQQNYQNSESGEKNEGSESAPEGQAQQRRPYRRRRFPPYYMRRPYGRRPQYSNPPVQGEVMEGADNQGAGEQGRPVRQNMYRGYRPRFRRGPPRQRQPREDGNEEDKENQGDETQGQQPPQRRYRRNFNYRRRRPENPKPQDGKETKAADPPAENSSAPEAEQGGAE

Biological target: Apolipoprotein L3 (APOL3), MYC-tagged, overexpressed from the PEGFP-APOL3-MYC vector (UniProt O95236)
Assay: co-IP; lysate of transfected MCF7 cells; MYC antibodies or YBX1 antibodies, IgG as negative control, overnight at 4 °C; agarose beads 3 h at 4 °C; PBS washes; western blotting

binding: binds
Substance: Y-box binding protein 1 (YBX1) (from UniProt P67809 1-324)
